Experimental data from patent US7300908B2, “Fungicidal triazolopyrimidines, method for the production thereof and use thereof in controlling noxious fungi and agents containing said compounds” (BASF Aktiengesellschaft, priority 2001, dated 2007).
Some results were stated once for a whole list of compounds, not compound by compound.

Assays:
Assay type in all cases: in vivo
Pyrenophora teres = assay: Protective activity against net blotch of barley; details: 63 ppm active compound; barley seedlings "Igri"; inoculated 24 hours after spray coating dried; assessed after 6 days; untreated plants 100% infection
Sphaerotheca fuliginea = assay: Protective activity against mildew of cucumbers; details: 63 ppm active compound; cucumber seedlings "Chinesische Schlange"; inoculated 20 hours after spray coating dried; assessed after 7 days; untreated plants 100% infection
Alternaria solani = assay: Activity against Alternaria solani on tomatoes (protective leaf spray); details: 63 ppm active compound; tomato plants "Große Fleischtomate St. Pierre"; infected the following day; assessed after 5 days; untreated plants 100% infection

Row | SMILES | infection of the entire leaf area (determined visually) (Pyrenophora teres) | infection of the cotyledon area (mildew development determined visually) (Sphaerotheca fuliginea) | infection (foliar blight determined visually in %) (Alternaria solani)
1 | CCc1nc2ncnn2c(CC(C)C)c1-c1c(F)cccc1Cl [Compound I-14, 7-isobutyl-5-ethyl-6-(2-Cl-,6-F-phenyl)-1,2,4-triazolo-[1,5a]pyrimidine] | at most 20% | at most 10% | at most 10%
2 | Cc1nc2ncnn2c(C2CCCCC2)c1-c1c(F)cccc1Cl [Compound I-4, 7-cyclohexyl-5-methyl-6-(2-Cl-,6-F-phenyl)-1,2,4-triazolo[1,5a]pyrimidine] | at most 20% | at most 10% | at most 10%
3 | CC(C)c1c(-c2c(F)cccc2Cl)c(Cl)nc2ncnn12 [C, reference compound] | – | – | at least 80%
